Patent publication US20250304918A1

B1: CACNG1 mAb #4 (antibody, V domains shown)
VH: QVQLQESGPGLVKPSETLSLTCTVSGDSINNYYWTWLRQPPGKGLEWIGYIYYSGSANYNPSLKSRVTISVDTSKNQFSLKLNSVTAADTAVYYCARGAVKYFRHWGQGTLVTVSS
VL: EIVLTQSPGTLSLSPGERATLSCRASQTINHNNLAWYQQRPGQAPRLLIYGASNRATAIPDRFSGSGSGTDFTLTISRLEPEDFEVYSCQQYGSLPLTFGGGTKVEIK
B2: CACNG1 mAb #3 (antibody, V domains shown)
VH: QVQLVESGGGVVQPGRSLRLSCAASGFTFSTYGMHWVRQAPGKGLEWVAVIWHDGSDKYYVDSVKGRFSIARDNSKNTLYLQMNSLRVEDTGIYYCARRGIRGTVFDHWGLGTLVTVSS
VL: DIQMTQSPSTLSASVGDRVTLTCRASQSISNKLAWYQQKPGKAPNLLIYKASNLESGVPSRFSGSGSGTEFTLTISSLQPDDFATYYCQQYNSYSWTFGQGTKVEIK
B3: CACNG1 mAb #2 (antibody, V domains shown)
VH: QVQLQQWGAGLLKPSATLSRTCAVYGGSFSGYYWNWIRQSPGKGLEWIGEILHSGRTNYNPSLKSRVTISVDTSKNQFSLKLTSVTAADTAVYYCAGRIAARHGWFDPWGQGTLVTVSS
VL: DIQMTQSPSSVSTSVGDRVTISCRASQDIRKWLAWYQQKPGKAPKLLIYATSSLQSGVPSRFSGSGSGTDFTLTISSLQPEDFATYFCQQANSFPFTFGQGTKLEIK

Each binder was assayed against monkey CACNG1 (monkey) (assay: no binding assay described; definition of the label).

| Binder | binding |
| --- | --- |
| B1 | binds |
| B2 | binds |
| B3 | binds |

No constants are given. Whether binding was seen depends on the method and setting. Binding can be weak; no strength is given.
